Data from PubChem BioAssay AID248 (DTP/NCI, 2004).
The list does not hold the whole screen: it gathers tests that were run many times, whatever their T/C, doses with no T/C, and many T/C values between a quarter and a half above the control. Further doses and runs are listed elsewhere. T/C: endpoint of the treated group in % of that of the vehicle group. Some doses have a count of surviving animals in place of a T/C: the source files T/C as zero there, which appears to mark a toxic dose or a test without result, not a measured value. Some doses without a T/C left all or most animals alive at the check, yet need not have been tolerated: the source hardly ever lists a survival T/C far under the control, and the zero likely stands for such cases as well. Survivors were counted at the toxicity check, usually on the fifth day, unless a day is given; later deaths do not show. Schedules are NCI's codes, taken here to give the interval after Q, in days (D) or hours (H), and the number of doses after X. Some schedule codes hold Z or #, which are not explained here. For survival time, this PubChem deposit counts one and a half times the control or more as active, and values a quarter to a half above the control carry no call in these data; other NCI protocols may use other cut-offs. Some T/C values carry the count of animals alive at the toxicity check (mostly the fifth day); where none is given, no animal had died by that day. Some entries were tested several times; their values stand side by side, smallest first.

Tested on: L1210 leukemia ip in BDF1 mice, survival T/C
Assay: NCI In Vivo Anticancer Drug Screen. Data for tumor model L1210 Leukemia (intraperitoneal) in B6D2F1 (BDF1) mice
Settings: T/C endpoint: mean survival time, higher T/C = longer survival
[1] = dose: 112.0 mg/kg/injection, schedule: Q01DX001 (oral), vehicle: saline

`CC(=O)NC1=C(N2CC2)C(=O)C(NC(C)=O)=C(N2CC2)C1=O` was tested, and the T/C (dose: 0.13 mg/kg/injection, schedule: Q01DX Z (ip), vehicle: saline) was 131 % of control, the T/C (dose: 0.25 mg/kg/injection, schedule: Q01DX006 (iv), vehicle: saline) was 136 % of control and the T/C (dose: 0.25 mg/kg/injection, schedule: Q01DX Z (ip), vehicle: saline) was 143 % of control. For the same molecule, the T/C (dose: 0.5 mg/kg/injection, schedule: Q01DX006 (iv), vehicle: saline) was 125 and 134 % of control, the T/C (dose: 0.5 mg/kg/injection, schedule: Q01DX Z (im), vehicle: saline) was 132 % of control and the T/C (dose: 0.5 mg/kg/injection, schedule: Q01DX Z (sc), vehicle: saline) was 139 % of control. For the same molecule, the T/C (dose: 0.75 mg/kg/injection, schedule: Q03DX006 (oral), vehicle: saline) was 138 % of control, the T/C (dose: 1.0 mg/kg/injection, schedule: Q01DX006 (iv), vehicle: saline) was 143 % of control and the T/C (dose: 1.0 mg/kg/injection, schedule: Q01DX Z (im), vehicle: saline) was 147 % of control. The T/C (dose: 1.0 mg/kg/injection, schedule: Q01DX Z (ip), vehicle: saline) was 145 % of control, the T/C (dose: 1.5 mg/kg/injection, schedule: Q01DX Z (ip), vehicle: carboxymethylcellulose (CMC)) was 131 % of control and the T/C (dose: 2.0 mg/kg/injection, schedule: Q01DX Z (ip), vehicle: saline) was 142 % of control. For the same molecule, the T/C (dose: 2.0 mg/kg/injection, schedule: Q01DX Z (sc), vehicle: saline) was 144 % of control, the T/C (dose: 2.0 mg/kg/injection, schedule: Q#A X Z (oral), vehicle: saline) was 145 % of control and the survivor count (dose: 2.8 mg/kg/injection, schedule: Q01DX Z (ip), vehicle: other) was 7 of 7. For the same molecule, the survivor count (dose: 4.0 mg/kg/injection, schedule: Q01DX Z (im), vehicle: saline) was 6 of 6, the survivor count (dose: 4.0 mg/kg/injection, schedule: Q01DX Z (ip), vehicle: other) was 4 of 7 and the survivor count (dose: 4.0 mg/kg/injection, schedule: Q01DX Z (ip), vehicle: saline) was 6 of 6. For the same molecule, the T/C (dose: 4.0 mg/kg/injection, schedule: Q01DX Z (oral), vehicle: saline) was 128 and 145 % of control, the T/C (dose: 4.0 mg/kg/injection, schedule: Q#A X Z (oral), vehicle: saline) was 145 % of control and the survivor count (dose: 5.0 mg/kg/injection, schedule: Q01DX Z (ip), vehicle: carboxymethylcellulose (CMC)) was 5 of 6. The T/C (dose: 6.0 mg/kg/injection, schedule: Q03DX006 (oral), vehicle: saline) was 130 % of control, the T/C (dose: 7.0 mg/kg/injection, schedule: Q01DX001 (oral), vehicle: saline) was 127 % of control [5 of 6 alive] and the survivor count (dose: 7.0 mg/kg/injection, schedule: Q07DX002 (oral), vehicle: saline) was 3 of 6. The survivor count (dose: 7.4 mg/kg/injection, schedule: Q01DX Z (ip), vehicle: carboxymethylcellulose (CMC)) was 6 of 6, the survivor count (dose: 8.0 mg/kg/injection, schedule: Q01DX006 (iv), vehicle: saline) was 2 of 6 and the survivor count (dose: 8.0 mg/kg/injection, schedule: Q01DX Z (ip), vehicle: saline) was 2 of 6. For the same molecule, the survivor count (dose: 10.0 mg/kg/injection, schedule: Q01DX Z (ip), vehicle: carboxymethylcellulose (CMC)) was 4 of 6, the T/C (dose: 12.0 mg/kg/injection, schedule: Q03DX006 (oral), vehicle: saline) was 136 % of control and the T/C (dose: 14.0 mg/kg/injection, schedule: Q01DX001 (oral), vehicle: saline) was 131 [5 of 6 alive] and 138 % of control. For the same molecule, the T/C (dose: 14.0 mg/kg/injection, schedule: Q07DX003 (oral), vehicle: saline) was 142 % of control, the T/C (dose: 24.0 mg/kg/injection, schedule: Q03DX006 (oral), vehicle: saline) was 145 % of control [5 of 6 alive] and the T/C (dose: 28.0 mg/kg/injection, schedule: Q01DX001 (oral), vehicle: saline) was 130 and 145 % of control. The survivor count (dose: 32.0 mg/kg/injection, schedule: Q#A X Z (oral), vehicle: saline) was 5 of 6, the T/C (dose: 48.0 mg/kg/injection, schedule: Q03DX006 (oral), vehicle: saline) was 142 % of control and the T/C (dose: 56.0 mg/kg/injection, schedule: Q01DX001 (oral), vehicle: saline) was 139 and 143 % of control [5 of 6 alive]. For the same molecule, the T/C (dose: 56.0 mg/kg/injection, schedule: Q07DX003 (oral), vehicle: saline) was 140 % of control [5 of 6 alive], the survivor count (dose: 64.0 mg/kg/injection, schedule: Q#A X Z (oral), vehicle: saline) was 3 of 6 and the survivor count (dose: 96.0 mg/kg/injection, schedule: Q03DX006 (oral), vehicle: saline) was 2 of 6. For the same molecule, the T/C [1] was 127 % of control, the survivor count [1] was 3 of 6 and the survivor count (dose: 192.0 mg/kg/injection, schedule: Q03DX006 (oral), vehicle: saline) was 2 of 6. The survivor count (dose: 384.0 mg/kg/injection, schedule: Q03DX006 (oral), vehicle: saline) was 0 of 6.

In the case of `C/C(=C/c1ccc(/C=C(\C)[N+](=O)[O-])cc1)[N+](=O)[O-]`, the survivor count (dose: 20.0 mg/kg/injection, schedule: Q01DX001 (ip), vehicle: acetone) is reported as 3 of 6, the survivor count (dose: 40.0 mg/kg/injection, schedule: Q01DX001 (ip), vehicle: acetone) is reported as 0 of 6 and the survivor count (dose: 75.0 mg/kg/injection, schedule: Q01DX001 (ip), vehicle: acetone) is reported as 1 of 6. The survivor count (dose: 150.0 mg/kg/injection, schedule: Q01DX001 (ip), vehicle: acetone) was 0 of 6 and the survivor count (dose: 300.0 mg/kg/injection, schedule: Q01DX001 (ip), vehicle: acetone) was 0 of 6.

For `c1ccc(C2(N3CCC4(CC3)OCCO4)CCCCC2)cc1`, the survivor count (dose: 400.0 mg/kg/injection, schedule: Q04DX002 (ip), vehicle: Klucel (hydroxypropylcellulose) (HPC)) was 0 of 3.

`O=C1OC(=O)C(Br)C1Br` (stereo not given) was tested, and the survivor count (dose: 6.25 mg/kg/injection, schedule: Q04DX003 (ip), vehicle: saline) was 3 of 3, the survivor count (dose: 100.0 mg/kg/injection, schedule: Q04DX003 (ip), vehicle: saline) was 0 of 3 and the survivor count (dose: 200.0 mg/kg/injection, schedule: Q04DX003 (ip), vehicle: saline) was 0 of 3. For the same molecule, the survivor count (dose: 400.0 mg/kg/injection, schedule: Q04DX003 (ip), vehicle: saline) was 0 of 3.

For `OC(COc1ccccc1)CN1CCN(c2ccccc2)CC1` (stereo not given), the survivor count (dose: 200.0 mg/kg/injection, schedule: Q04DX002 (ip), vehicle: Klucel (hydroxypropylcellulose) (HPC)) was 3 of 3.

With `CC1(C[N+](=O)[O-])CCCC(=O)C1` (stereo not given) the survivor count (dose: 150.0 mg/kg/injection, schedule: Q01DX001 (ip), vehicle: saline) was 0 of 6 and the survivor count (dose: 300.0 mg/kg/injection, schedule: Q01DX001 (ip), vehicle: saline) was 0 of 6.

With `CCN(CCCCO)CCc1c[nH]c2ccc(OC)cc12` the survivor count (dose: 150.0 mg/kg/injection, schedule: Q04DX003 (ip), vehicle: saline) was 1 of 4, the survivor count (dose: 300.0 mg/kg/injection, schedule: Q01DX009 (ip), vehicle: saline) was 0 of 6 and the survivor count (dose: 300.0 mg/kg/injection, schedule: Q04DX003 (ip), vehicle: saline) was 0 of 4.

For `On1ccc(N2CCOCC2)cc1=NC1CCCCC1`, the survivor count (dose: 200.0 mg/kg/injection, schedule: Q01DX001 (ip), vehicle: saline) was 0 of 6 and the survivor count (dose: 400.0 mg/kg/injection, schedule: Q01DX001 (ip), vehicle: saline) was 0 of 6.

In the case of `CCCCCC/C=C/C1CC(=O)OC1=O` (stereo not given), the survivor count (dose: 100.0 mg/kg/injection, schedule: Q01DX009 (ip), vehicle: saline with Tween-80) is reported as 6 of 6 and the survivor count (dose: 400.0 mg/kg/injection, schedule: Q01DX009 (ip), vehicle: saline with Tween-80) is reported as 0 of 6.

In the case of `NC(=O)CNC1=C(N2CC2)C(=O)C(NCC(N)=O)=C(N2CC2)C1=O`, the T/C (dose: 1.25 mg/kg/injection, schedule: Q01DX009 (ip), vehicle: saline) is reported as 128 % of control, the T/C (dose: 2.0 mg/kg/injection, schedule: Q04DX003 (ip), vehicle: saline) is reported as 144 % of control and the T/C (dose: 2.5 mg/kg/injection, schedule: Q01DX009 (ip), vehicle: saline) is reported as 133 % of control. For the same molecule, the T/C (dose: 4.0 mg/kg/injection, schedule: Q04DX003 (ip), vehicle: saline) was 143 % of control, the T/C (dose: 5.0 mg/kg/injection, schedule: Q01DX009 (ip), vehicle: saline) was 142 % of control and the T/C (dose: 5.2 mg/kg/injection, schedule: Q04DX003 (ip), vehicle: saline) was 126 % of control. For the same molecule, the T/C (dose: 8.0 mg/kg/injection, schedule: Q04DX003 (ip), vehicle: saline) was 132 % of control.
